{"source": "PubChem BioAssay AID1224830 (NIAID, 2016)", "test": "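Regulators of TLR4 signalling towards TNF-alpha in macrophage-like cells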 (primary screen)", "system": "human THP-1 monocytic leukaemia cells, TNF dual-luciferase reporter clone, PMA-differentiated to macrophage-like cells", "knock-down reagent": "siRNA pool against human genes, 50 nM", "time to read-out": "LPS for 4 h, given about 3 days after siRNA transfection", "treatment": "bacterial LPS (TLR4 ligand), 10 ng/ml", "measurement": "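Ratio of firefly to renilla light, scaled to the plate median and expressed as a robust z-score per replicate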", "scale": "TNF reporter robust z-score: higher = stronger TNF reporter response to LPS", "rule for the call": "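Each well counts as active if its z-score is over 2.8 or under -1.5; controls are left without a call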", "note": "Here is a random part of about 18,000 deposited reagents. Of all reagents, about 2,900 (16%) got an active call. 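Calls are made per well; low scores hint the gene aids the LPS response, high scores that it dampens it.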 A number with no mark means an inactive call. Repeated entries: four replicate wells of each siRNA pool."}
{"target": "NAV1 (neuron navigator 1)", "TNF reporter robust z-score": -0.64}
{"target": "NAV1 (neuron navigator 1)", "TNF reporter robust z-score": -0.01}
{"target": "NAV1 (neuron navigator 1)", "TNF reporter robust z-score": -0.53}
{"target": "NAV1 (neuron navigator 1)", "TNF reporter robust z-score": 0.07}
{"target": "MRGPRX1 (MAS related GPR family member X1)", "TNF reporter robust z-score": 2.52}
{"target": "MRGPRX1 (MAS related GPR family member X1)", "TNF reporter robust z-score": 2.7}
{"target": "MRGPRX1 (MAS related GPR family member X1)", "TNF reporter robust z-score": 0.4}
{"target": "MRGPRX1 (MAS related GPR family member X1)", "TNF reporter robust z-score": 1.4}
{"target": "MAPK11 (mitogen-activated protein kinase 11)", "TNF reporter robust z-score": 2.62}
{"target": "MAPK11 (mitogen-activated protein kinase 11)", "TNF reporter robust z-score": -0.67}
{"target": "MAPK11 (mitogen-activated protein kinase 11)", "TNF reporter robust z-score": 0.79}
{"target": "MAPK11 (mitogen-activated protein kinase 11)", "TNF reporter robust z-score": 1.88}
{"target": "COX8A (cytochrome c oxidase subunit 8A)", "TNF reporter robust z-score": 0.02}
{"target": "COX8A (cytochrome c oxidase subunit 8A)", "TNF reporter robust z-score": 1.59}
{"target": "COX8A (cytochrome c oxidase subunit 8A)", "TNF reporter robust z-score": 0.12}
{"target": "COX8A (cytochrome c oxidase subunit 8A)", "TNF reporter robust z-score": 0.18}
{"target": "REXO1L1P (REXO1 like 1, pseudogene)", "TNF reporter robust z-score": 1.56}
{"target": "REXO1L1P (REXO1 like 1, pseudogene)", "TNF reporter robust z-score": 0.64}
{"target": "REXO1L1P (REXO1 like 1, pseudogene)", "TNF reporter robust z-score": 1.07}
{"target": "REXO1L1P (REXO1 like 1, pseudogene)", "TNF reporter robust z-score": 1.68}
{"target": "SLC25A38", "TNF reporter robust z-score": 1.84}
{"target": "SLC25A38", "TNF reporter robust z-score": 0.03}
{"target": "SLC25A38", "TNF reporter robust z-score": 1.63}
{"target": "SLC25A38", "TNF reporter robust z-score": 1.07}
{"target": "DNER (delta/notch like EGF repeat containing)", "TNF reporter robust z-score": -0.12}
{"target": "DNER (delta/notch like EGF repeat containing)", "TNF reporter robust z-score": 0.8}
{"target": "DNER (delta/notch like EGF repeat containing)", "TNF reporter robust z-score": -0.34}
{"target": "DNER (delta/notch like EGF repeat containing)", "TNF reporter robust z-score": 0.3}
{"target": "SLC26A4", "TNF reporter robust z-score": -0.57}
{"target": "SLC26A4", "TNF reporter robust z-score": -1.07}
{"target": "SLC26A4", "TNF reporter robust z-score": -1.38}
{"target": "SLC26A4", "TNF reporter robust z-score": -0.86}

2 of these entries, reformatted.
target | TNF reporter robust z-score
MRGPRX1 (MAS related GPR family member X1) | 2.52
MRGPRX1 (MAS related GPR family member X1) | 2.7
